Measurements reported in PubChem BioAssay AID1053208 (Peter MacCallum Cancer Centre, 2014).
This is an unselected part of about 17,000 reagents tested. In the full data, 788 (4.7%) got an active call. 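Calls rest on z-score classes alone; an extra cut-off of viability at most 70% of control was not applied to them.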

- Test: 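Find knock-downs that sensitise mouse osteosarcoma cells to doxorubicin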 (primary screen)
- System: mouse osteosarcoma cells, early-passage culture from an engineered mouse model of fibroblastic bone tumour
- Reagent: siRNA pool against mouse genes, 40 nM
- Time to read-out: about 120 h (48 h before drug, then 72 h with drug)
- Challenge: doxorubicin 100 nM for 72 h, roughly 30-40% inhibitory dose
- Detection: 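Luminescent ATP signal taken as viability with or without 100 nM doxorubicin for 72 h; mean of two wells set against non-targeting siRNA and turned into robust z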
- Scale: viability z-score with doxorubicin and doxorubicin viability vs non-targeting: higher = more viable cells under doxorubicin; viability z-score without drug: higher = more viable cells with knock-down alone; z-score of drug to no-drug ratio: higher = less drug sensitisation by knock-down
- Active means: 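Called active if knock-down leaves viability unchanged without drug (z within -2 to 2) but lowers it with doxorubicin (z at or under -2)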

no.	target gene	PubChem SID	combined z-score class	viability z-score with doxorubicin	viability z-score without drug	z-score of drug to no-drug ratio	doxorubicin viability vs non-targeting	Call
1	Prkcg (protein kinase C, gamma)	SID152316924	high cell count with and without drug	2.02	2.7	0.34	1.12	inactive
2	Atic	SID152302197	low cell count with and without drug	-2.25	-2.19	-0.9	0.74	inactive
3	Tnfsf15 (tumor necrosis factor (ligand) superfamily, member 15)	SID152285153	no change with or without drug	0.22	0.17	0.22	0.96	inactive
4	Stk-ps2 (serine/threonine kinase 2)	SID152283465	no change with or without drug	-1.46	0.84	-1.91	0.81	inactive
5	Zbtb1 (zinc finger and BTB domain containing 1)	SID152283345	no change with or without drug	0.67	0.51	0.45	1	inactive
6	Commd2 (COMM domain containing 2)	SID152332548	no change with or without drug	-0.45	0.17	-0.45	0.9	inactive
7	Fam167a (family with sequence similarity 167, member A)	SID152296844	no change with or without drug	0	0.34	-0.11	0.94	inactive
8	Ptpn23 (protein tyrosine phosphatase, non-receptor type 23)	SID152330493	no change with or without drug	0.34	-0.17	0.56	0.97	inactive
9	Tab2 (TGF-beta activated kinase 1/MAP3K7 binding protein 2)	SID152261646	no change with or without drug	-0.45	-1.52	0.79	0.9	inactive
10	Sf3a1 (splicing factor 3a, subunit 1)	SID152307753	low cell count with and without drug	-4.5	-3.37	-2.92	0.54	inactive
11	Or8g53 (olfactory receptor family 8 subfamily G member 53)	SID152333330	no change with or without drug	-1.57	-0.84	-1.01	0.8	inactive
12	Adam17 (a disintegrin and metallopeptidase domain 17)	SID152328028	no change with or without drug	-0.22	-0.17	0	0.92	inactive
13	Bbs4 (Bardet-Biedl syndrome 4)	SID152261314	low cell count with doxorubicin only	-2.36	-0.51	-2.14	0.73	active
14	Commd1 (COMM domain containing 1)	SID152264080	no change with or without drug	-1.12	-0.51	-0.79	0.84	inactive
15	Sp2 (Sp2 transcription factor)	SID152275968	no change with or without drug	0.67	0.51	0.45	1	inactive
16	Snapc3 (small nuclear RNA activating complex, polypeptide 3)	SID152271035	no change with or without drug	-1.01	-1.01	-0.22	0.85	inactive
17	Ubl3 (ubiquitin-like 3)	SID152336603	high cell count without drug only	-0.34	2.87	-1.91	0.91	inactive
18	Klhl18 (kelch-like 18)	SID152280676	no change with or without drug	1.12	0.51	0.9	1.04	inactive
19	Ano5 (anoctamin 5)	SID152271371	no change with or without drug	-0.22	0.17	-0.22	0.92	inactive
20	Sugp2 (SURP and G patch domain containing 2)	SID152285236	no change with or without drug	1.12	-0.17	1.46	1.04	inactive
21	Fchsd1 (FCH and double SH3 domains 1)	SID152270752	no change with or without drug	0	-0.67	0.56	0.94	inactive
22	Zfp128 (zinc finger protein 128)	SID152282274	no change with or without drug	-1.8	-0.51	-1.46	0.78	inactive
23	Rab11fip4 (RAB11 family interacting protein 4 (class II))	SID152290341	no change with or without drug	-0.9	-0.84	-0.22	0.86	inactive
24	Prss50 (serine protease 50)	SID152266610	low cell count with doxorubicin only	-2.25	-1.18	-1.57	0.74	active
25	Col5a2 (collagen, type V, alpha 2)	SID152313593	no change with or without drug	1.12	1.85	0	1.04	inactive
26	Msh4 (mutS homolog 4)	SID152327571	low cell count with doxorubicin only	-2.02	-1.52	-1.12	0.76	active
27	Eif5a2 (eukaryotic translation initiation factor 5A2)	SID152285008	no change with or without drug	-0.9	0.51	-1.12	0.86	inactive
28	Wnt9a (WNT family member 9A)	SID152322624	no change with or without drug	0.79	-0.84	1.57	1.01	inactive
29	Plekhh3 (pleckstrin homology, MyTH4 and FERM domain containing H3)	SID152259373	no change with or without drug	0.45	0.34	0.34	0.98	inactive
30	Dnaja4 (DnaJ heat shock protein family (Hsp40) member A4)	SID152326868	no change with or without drug	0	-0.51	0.45	0.94	inactive
31	Prr18 (proline rich 18)	SID152305543	low cell count with doxorubicin only	-4.05	-0.51	-3.93	0.58	active
32	Ces3b (carboxylesterase 3B)	SID152273863	no change with or without drug	-0.67	-1.18	0.22	0.88	inactive
33	Gnpda1 (glucosamine-6-phosphate deaminase 1)	SID152265114	no change with or without drug	-0.22	-0.84	0.45	0.92	inactive
34	Efhd1 (EF hand domain containing 1)	SID152279107	no change with or without drug	-1.57	-0.84	-1.01	0.8	inactive
35	Tuba8 (tubulin, alpha 8)	SID152282698	no change with or without drug	0.9	0.34	0.79	1.02	inactive
36	Uimc1 (ubiquitin interaction motif containing 1)	SID152265183	no change with or without drug	-1.12	-0.84	-0.56	0.84	inactive
37	Armc12 (armadillo repeat containing 12)	SID152278695	no change with or without drug	-1.8	-1.52	-0.79	0.78	inactive
38	Or52n2c (olfactory receptor family 52 subfamily N member 2C)	SID152259979	no change with or without drug	1.46	0.84	1.01	1.07	inactive
39	Gimap5 (GTPase, IMAP family member 5)	SID152330412	no change with or without drug	-0.79	-0.51	-0.34	0.87	inactive
40	Plce1 (phospholipase C, epsilon 1)	SID152262219	no change with or without drug	1.91	0.84	1.46	1.11	inactive
41	Far2 (fatty acyl CoA reductase 2)	SID152309475	high cell count without drug only	1.8	2.19	0.45	1.1	inactive
42	Bag6 (BCL2-associated athanogene 6)	SID152261638	no change with or without drug	-1.8	-0.84	-1.24	0.78	inactive
43	Hsf4 (heat shock transcription factor 4)	SID152334732	no change with or without drug	-0.9	-1.18	0	0.86	inactive
44	Plk2 (polo like kinase 2)	SID152331974	low cell count with doxorubicin only	-3.93	-1.52	-3.26	0.59	active
45	Slc32a1	SID152318153	no change with or without drug	-0.45	0.34	-0.56	0.9	inactive
46	Sh3pxd2a (SH3 and PX domains 2A)	SID152270103	no change with or without drug	-0.45	0	-0.34	0.9	inactive
47	Sh3pxd2a (SH3 and PX domains 2A)	SID152331063	no change with or without drug	0.22	-0.51	0.67	0.96	inactive
48	Klk1b26 (kallikrein 1-related petidase b26)	SID152284611	no change with or without drug	1.57	1.35	0.79	1.08	inactive
49	Vmn1r83 (vomeronasal 1 receptor 83)	SID152326493	high cell count with doxorubicin only	2.81	1.18	2.14	1.19	inactive
50	Adig (adipogenin)	SID152297620	no change with or without drug	0.34	0.51	0.11	0.97	inactive

Hits, among the entries above:
target gene	PubChem SID	combined z-score class	viability z-score with doxorubicin	viability z-score without drug	z-score of drug to no-drug ratio	doxorubicin viability vs non-targeting	Call
Bbs4 (Bardet-Biedl syndrome 4)	SID152261314	low cell count with doxorubicin only	-2.36	-0.51	-2.14	0.73	active
Prss50 (serine protease 50)	SID152266610	low cell count with doxorubicin only	-2.25	-1.18	-1.57	0.74	active
Msh4 (mutS homolog 4)	SID152327571	low cell count with doxorubicin only	-2.02	-1.52	-1.12	0.76	active
Prr18 (proline rich 18)	SID152305543	low cell count with doxorubicin only	-4.05	-0.51	-3.93	0.58	active
Plk2 (polo like kinase 2)	SID152331974	low cell count with doxorubicin only	-3.93	-1.52	-3.26	0.59	active
